Data source: PubChem BioAssay AID743121 (NCATS, 2013)

Assay: 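Partners whose loss is lethal together with topoisomerase I blockade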 (primary screen)
Cells: MDA-MB-231 cells, a human breast cancer line
Reagent: single siRNA against human genes, 20 nM siRNA (0.8 pmol per well)
Time to read-out: 120 h (drug added 48 h after transfection, read 72 h later)
Challenge: camptothecin 20 nM (about EC30) for 72 h; vehicle 0.1% DMSO in parallel plates
Detection: 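Cell viability by ATP luminescence (CellTiter-Glo) as % of non-targeting siRNA wells, and the log2 ratio of viability without drug over viability with camptothecin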
Reading the numbers: log2 vehicle/camptothecin viability: higher = stronger sensitisation to camptothecin; viability with camptothecin: higher = more viable cells
Units: viability with camptothecin in % of control
Call rule: 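Each gene scored by redundant siRNA activity (RSA) over its individual siRNA ratios; a gene is called active at p < 0.001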
Shown is one part, drawn at random, of about 26,000 reagents tested. 167 of them (0.63%) count as active. 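Calls are per gene from RSA p-values that are not deposited; an individual active-marked siRNA can sensitise only weakly.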 Reagents against one gene are numbered here. Not all columns of the deposit are shown.

STRADA #1 | log2 vehicle/camptothecin viability: -0.109; viability with camptothecin: 60.9; outcome: inactive
STRADA #2 | log2 vehicle/camptothecin viability: -0.049; viability with camptothecin: 94.4; outcome: inactive
STRADA #3 | log2 vehicle/camptothecin viability: -0.648; viability with camptothecin: 83.4; outcome: inactive
STRADA #4 | log2 vehicle/camptothecin viability: -0.253; viability with camptothecin: 83; outcome: inactive
MMP17 #1 | log2 vehicle/camptothecin viability: -0.424; viability with camptothecin: 54.2; outcome: inactive
MMP17 #2 | log2 vehicle/camptothecin viability: 0.00192; viability with camptothecin: 117; outcome: inactive
MMP17 #3 | log2 vehicle/camptothecin viability: 0.473; viability with camptothecin: 28.8; outcome: inactive
MMP17 #4 | log2 vehicle/camptothecin viability: -0.378; viability with camptothecin: 87.4; outcome: inactive
MED23 #1 | log2 vehicle/camptothecin viability: -0.121; viability with camptothecin: 108; outcome: inactive
MED23 #2 | log2 vehicle/camptothecin viability: -0.105; viability with camptothecin: 95.9; outcome: inactive
MED23 #3 | log2 vehicle/camptothecin viability: 0.156; viability with camptothecin: 70.1; outcome: inactive
MED23 #4 | log2 vehicle/camptothecin viability: -0.139; viability with camptothecin: 49.4; outcome: inactive
TGM7 #1 | log2 vehicle/camptothecin viability: -0.036; viability with camptothecin: 84.7; outcome: inactive
TGM7 #2 | log2 vehicle/camptothecin viability: -0.0358; viability with camptothecin: 94.8; outcome: inactive
TGM7 #3 | log2 vehicle/camptothecin viability: 0.0243; viability with camptothecin: 98.6; outcome: inactive
ARAF #1 | log2 vehicle/camptothecin viability: -0.37; viability with camptothecin: 80; outcome: inactive
ARAF #2 | log2 vehicle/camptothecin viability: -0.0846; viability with camptothecin: 82.4; outcome: inactive
ARAF #3 | log2 vehicle/camptothecin viability: 0.174; viability with camptothecin: 104; outcome: inactive
ARAF #4 | log2 vehicle/camptothecin viability: -0.18; viability with camptothecin: 87.4; outcome: inactive
PRL #1 | log2 vehicle/camptothecin viability: -0.132; viability with camptothecin: 132; outcome: inactive
PRL #2 | log2 vehicle/camptothecin viability: -0.551; viability with camptothecin: 71; outcome: inactive
PRL #3 | log2 vehicle/camptothecin viability: 0.122; viability with camptothecin: 90.4; outcome: inactive
PRL #4 | log2 vehicle/camptothecin viability: -0.1; viability with camptothecin: 78.2; outcome: inactive

The list goes on (4 carried over from the part before).
PRL #1 | log2 vehicle/camptothecin viability: -0.132; viability with camptothecin: 132; outcome: inactive
PRL #2 | log2 vehicle/camptothecin viability: -0.551; viability with camptothecin: 71; outcome: inactive
PRL #3 | log2 vehicle/camptothecin viability: 0.122; viability with camptothecin: 90.4; outcome: inactive
PRL #4 | log2 vehicle/camptothecin viability: -0.1; viability with camptothecin: 78.2; outcome: inactive
MYLK #1 | log2 vehicle/camptothecin viability: -0.343; viability with camptothecin: 107; outcome: inactive
MYLK #2 | log2 vehicle/camptothecin viability: -0.188; viability with camptothecin: 107; outcome: inactive
MYLK #3 | log2 vehicle/camptothecin viability: 0.025; viability with camptothecin: 57.7; outcome: inactive
MYLK #4 | log2 vehicle/camptothecin viability: 0.364; viability with camptothecin: 97.9; outcome: inactive
ADGRF2P #1 | log2 vehicle/camptothecin viability: -0.243; viability with camptothecin: 91.8; outcome: inactive
ADGRF2P #2 | log2 vehicle/camptothecin viability: 0.0524; viability with camptothecin: 82.6; outcome: inactive
ADGRF2P #3 | log2 vehicle/camptothecin viability: -0.214; viability with camptothecin: 56.9; outcome: inactive
ADGRF2P #4 | log2 vehicle/camptothecin viability: 0.198; viability with camptothecin: 35.7; outcome: inactive
GLB1 #1 | log2 vehicle/camptothecin viability: 0.109; viability with camptothecin: 25.6; outcome: inactive
GLB1 #2 | log2 vehicle/camptothecin viability: -0.0449; viability with camptothecin: 109; outcome: inactive
GLB1 #3 | log2 vehicle/camptothecin viability: -0.173; viability with camptothecin: 62.3; outcome: inactive
GLB1 #4 | log2 vehicle/camptothecin viability: -0.0484; viability with camptothecin: 41.9; outcome: inactive
